The supplement of paper PMC11732987, “Enantioselective OTUD7B fragment discovery through chemoproteomics screening and high-throughput optimisation” (Communications Chemistry, 2025)
The other results are listed elsewhere or left out. The data scatter; read single values as rough.

Tested on: T1, NCOR2 C2436
T1 sequence (whole entry): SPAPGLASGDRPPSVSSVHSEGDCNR
Assay: log2 mean competition ratio of IA-DTB cysteine labelling (DMSO/compound) (log2 ratio); higher = stronger cysteine engagement by compound
Conditions: 50 µM; treatment time: 4 h; cell line lysate: HEK293T
Experimental: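 IA-DTB competitive cysteine chemoproteomics in HEK293T RIPA lysate. Lysates were treated with compound 29 or 30 at 50 or 200 µM for 4 h, then IA-DTB (500 µM, 1 h), trypsin-digested, NeutrAvidin-enriched and analysed by diaPASEF. Competition ratio = intensity DMSO / intensity compound (n=4 treated, n=64 DMSO); binding: mean log2 CR ≥ 1 and p ≤ 0.05 plus QC filters. Target is the cysteine site.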

SMILES	log2 mean competition ratio
O=C(CCl)N[C@H]1CCCc2ccccc21	0.0199
O=C(CCl)N[C@@H]1CCCc2ccccc21	-0.0794

Same assay, conditions: 200 µM; treatment time: 4 h; cell line lysate: HEK293T

SMILES	log2 mean competition ratio
O=C(CCl)N[C@H]1CCCc2ccccc21	0.145
O=C(CCl)N[C@@H]1CCCc2ccccc21	0.317
